# In PubChem BioAssay AID504834 (National Center for Advancing Translational Sciences (NCATS), 2011):
# About 22,000 (6.9%) of roughly 320,000 compounds were called active. The inconclusive results got no clear call from the source; some entries with a clear call stand among them for comparison. The call rests on the fitted dose curve; in most records, active means well fitted inhibition curve with a large enough effect; inconclusive means small, poorly fitted or top-dose-only effect, or another doubt; inactive means no such curve, though single readings can be large or run the other way. Potencies of inconclusive entries are doubtful fits and often do not repeat.
# Test: Primary qHTS for delayed death inhibitors of the malarial parasite plastid, 96 hour incubation
# Details: P. falciparum luciferase reporter growth; series mostly up to 28.7 µM; activity change, negative = inhibition: at the top concentration
# In short: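 Readout is luminescence from an integrated firefly luciferase in P. falciparum. Red cells, 2% hematocrit and 0.05% parasitemia final, were cultured with compound through two parasite generations (96 hours) at 37 C, 5% CO2.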
# On the % scale 0 is the no-effect control and ±100 the full control effect; potency means the concentration at half of the fitted maximal effect.
SMILES,"activity change, negative = inhibition",Potency
Cc1ccc(OC(=O)c2cccc(S(=O)(=O)N3CCN(C)CC3)c2)c(Br)c1,inactive: 27.1%,–
CCN(C(=O)c1cccs1)c1nc(-c2ccc(OC)cc2)cs1,–,"inconclusive: 10.4 µM [inhibitor, single point]"
CSc1nc2c(c(=O)[nH]1)C(c1cccc(Br)c1)CC(=O)N2 (stereo not drawn),inactive: -7.28%,–
CCNC(=S)N1N=C2c3ccccc3CCC2C1c1ccc(F)cc1 (stereo not drawn),–,active: 2.62 µM
CC1CCN(C(=O)c2ccc(S(=O)(=O)Cc3cc(F)ccc3F)c([N+](=O)[O-])c2)CC1,–,active: 10.4 µM
CC(C)(C)c1cc(C(=O)N/N=C/c2ccccc2O)n(-c2ccccc2)n1,–,"inconclusive: 9.28 µM [inhibitor, single point]"
O=C(CCS(=O)(=O)Cc1ccccc1F)NCCc1ccc(Cl)cc1,inactive: -6.65%,–
COc1ccc(-c2csc(N(CC3CCCO3)C(=O)c3ccccc3)n2)cc1 (stereo not drawn),inactive: 19.5%,–
CC(C)(C)c1ccc(OCC(O)CN2CCN(C(=O)c3ccccc3)CC2)cc1 (stereo not drawn),–,"inconclusive: 4.15 µM [inhibitor, partial curve, poor fit]"
Cc1c(NS(=O)(=O)c2ccc(N=NN(C)C)cc2)c(=O)n(-c2ccccc2)n1C,–,"inconclusive: 3.7 µM [inhibitor, full curve]"
CC1=NNC(=O)C1C(c1cccc(O)c1)C(C#N)C#N (stereo not drawn),–,"inconclusive: 18.5 µM [inhibitor, partial curve, poor fit]"
COc1ccccc1CNC(=O)CCCn1nc(C)c2c(C)n(-c3ccc(C)cc3)nc2c1=O,–,"inconclusive: 0.928 µM [inhibitor, partial curve, poor fit]"
CN(CCc1ccccc1)Cc1nc(-c2cnccn2)no1,–,"inconclusive: 11.7 µM [inhibitor, single point]"
Cc1ccc2nc(SC(C)C(=O)NCc3ccc4c(c3)OCO4)[nH]c2c1 (stereo not drawn),–,"inconclusive: 13.1 µM [inhibitor, partial curve, poor fit]"
O=C(Cc1c(F)cccc1Cl)Nc1nccs1,–,active: 14.7 µM
CCOc1cc(C(=O)N=c2sccn2C)ccc1OC(F)F,inactive: -11.2%,–
COc1cccc(C(=O)N2C[C@H]3C[C@@H](C2)c2cccc(=O)n2C3)c1,–,"inconclusive: 0.0033 µM [inhibitor, full curve, poor fit]"
Cc1ccc(C)c2[nH]c(=O)c(CN(CCN3CCCC3)C(=O)Nc3ccc(F)cc3)cc12,–,"inconclusive: 0.522 µM [inhibitor, full curve, poor fit]"
COc1ccc(C(=O)N/N=C/c2ccc(OC)c(OS(=O)(=O)c3ccccc3)c2)cc1,–,"inconclusive: 18.5 µM [inhibitor, single point]"
CC(Nc1cccc([N+](=O)[O-])c1)C(=O)Nc1ccc(S(=O)(=O)N2CCCC2)cc1 (stereo not drawn),–,"inconclusive: 16.5 µM [inhibitor, single point]"
Cc1csc2ncc(C(=O)Nc3ccon3)c(=O)n12,–,active: 2.62 µM
COc1ccccc1-n1nnnc1SCC(=O)NCC1(N2CCOCC2)CCCCC1,–,"inconclusive: 18.5 µM [inhibitor, single point]"
O=C(N/N=C/c1ccc[nH]1)c1cccnc1,inactive: 173%,–

# 3 records drawn at random from those above:
SMILES,"activity change, negative = inhibition",Potency
Cc1ccc(C)c2[nH]c(=O)c(CN(CCN3CCCC3)C(=O)Nc3ccc(F)cc3)cc12,–,"inconclusive: 0.522 µM [inhibitor, full curve, poor fit]"
CCN(C(=O)c1cccs1)c1nc(-c2ccc(OC)cc2)cs1,–,"inconclusive: 10.4 µM [inhibitor, single point]"
COc1ccccc1-n1nnnc1SCC(=O)NCC1(N2CCOCC2)CCCCC1,–,"inconclusive: 18.5 µM [inhibitor, single point]"

# (cont.)

SMILES,"activity change, negative = inhibition",Potency
COCCn1c(SCC(=O)N(C(C)C)C(C)C)nnc1-c1cc2ccccc2cc1O,–,"inconclusive: 10.4 µM [inhibitor, single point]"
COc1ccc(CN2C(=O)NC3(CCOc4ccccc43)C2=O)cc1F (stereo not drawn),–,"inconclusive: 18.5 µM [inhibitor, single point]"
O=C(Nc1ccccc1-c1ccccc1)c1cnccn1,–,"inconclusive: 18.5 µM [inhibitor, single point]"
CCC(C)NC(C(=O)Nc1ccc(Cl)c([N+](=O)[O-])c1)c1ccccc1 (stereo not drawn),–,"inconclusive: 18.5 µM [inhibitor, single point]"
O=C(Nc1cc2cccc([N+](=O)[O-])c2oc1=O)c1cccs1,–,"inconclusive: 10.4 µM [inhibitor, single point]"
Cc1sc(NC(=O)c2ccc(=O)n(C)n2)nc1-c1ccccc1,inactive: 118%,–
O=C(NCc1csc2ccc(Cl)cc12)Nc1ccccc1,–,"inconclusive: 18.5 µM [inhibitor, single point]"
Cc1ccc(S(=O)(=O)/N=C2/NC(=O)/C(=C\c3cc(Br)cc(Br)c3O)S2)cc1,inactive: -90.6%,–
N#Cc1ccccc1NC(=O)C1CC(=O)N(c2ccc3c4c(cccc24)CC3)C1 (stereo not drawn),–,"inconclusive: 10.4 µM [inhibitor, single point]"
C=C(C)CNC(=O)c1ccc(OC2CCN(S(=O)(=O)N(C)C)CC2)cc1,–,active: 13.1 µM
O=C(Nc1ccc(S(=O)(=O)N2CCCC2)cc1)C1CCCN1C(=O)c1cccs1 (stereo not drawn),inactive: -5.52%,–
C[C@]12CCC(=O)C(O)=C1CC[C@@H]1[C@@H]2CC[C@]2(C)C(=O)CC[C@@H]12,–,"inconclusive: 8.28 µM [inhibitor, partial curve, poor fit]"
COc1cc(C(=O)OCC(=O)Nc2ccc(N3CCOCC3)cc2)ccc1OCC(C)C,inactive: 6.23%,–
O=C(NS(=O)(=O)c1ccc(NC(=O)C2CCCO2)cc1)c1ccccc1 (stereo not drawn),–,"inconclusive: 11.7 µM [inhibitor, partial curve]"
O=C(NCc1cccnc1)C1CC(c2ccccc2Cl)=NO1 (stereo not drawn),inactive: -20.3%,–
CCCCNC(=O)c1ccc(CS(=O)(=O)c2ccc(C)cc2)o1,inactive: 36.2%,–
CC(=NCc1ccco1)c1c(O)n(Cc2ccccc2)c(=O)[nH]c1=O,–,"inconclusive: 18.5 µM [inhibitor, single point]"
CCc1ccc(OCC(=O)NC2CC(C)(C)NC(C)(C)C2)cc1,–,active: 6.57 µM
CCOC(=O)N1CCN(C(=O)C2CC(=O)N(c3ccc(OC)cc3)C2c2ccc(OC)cc2)CC1 (stereo not drawn),–,"inconclusive: 18.5 µM [inhibitor, single point]"
O=C1c2cc(F)ccc2OC2(CCNCC2)C12CC(c1ccccc1)=NO2 (stereo not drawn),–,"inconclusive: 18.5 µM [inhibitor, single point]"
Cn1nccc1C(=O)N1CCCC(Nc2ccc(F)cc2)C1 (stereo not drawn),–,"inconclusive: 1.85 µM [inhibitor, partial curve, poor fit]"
O=C(CN1CCCCC1)Nc1ccccc1,inactive: 57.5%,–
Cc1ccc(Cn2nnnc2CN2CCC(NC(=O)c3ccc(Br)cc3)CC2)cc1,–,"inconclusive: 18.5 µM [inhibitor, single point]"

SMILES,"activity change, negative = inhibition",Potency
Cc1cccc(NC(=O)CNC(=O)c2ccco2)n1,inactive: 31.7%,–
Cc1ccccc1N=C1NC(=O)CC(c2ccccc2)S1 (stereo not drawn),–,"inconclusive: 5.22 µM [inhibitor, single point]"
COc1ccc(-n2c3nc4ccccc4nc3c3c(=N)oc(C)nc32)cc1,inactive: 6.51%,–
CC(=O)OCc1c(C(F)(F)F)nn(C)c1Sc1ccccc1,inactive: 36.3%,–
C/C(=N\OCC(=O)Nn1c(C)nc2ccccc2c1=O)c1ccccc1,–,"inconclusive: 0.0033 µM [inhibitor, full curve, poor fit]"
Cc1nn(C(C)C(=O)NCCc2ccccc2)c(=O)c2cc3occc3n12 (stereo not drawn),–,"inconclusive: 18.5 µM [inhibitor, partial curve, poor fit]"
CCN1C(=O)c2cccc3c(NC(=O)c4ccccc4)ccc1c23,–,"inconclusive: 7.38 µM [inhibitor, partial curve, poor fit]"
CCCOc1ccc(-c2c(C(=O)N/N=C/c3ccc(OCC)cc3)nnn2-c2nonc2N)cc1,–,"inconclusive: 8.28 µM [inhibitor, partial curve, poor fit]"
CCCCn1c(NS(=O)(=O)c2ccccc2)c(C(=O)OCC)c2nc3ccccc3nc21,–,"inconclusive: 1.65 µM [inhibitor, full curve, poor fit]"
COCCC(=O)N1CCC(Oc2ccc(C(=O)N3CCCCC3COC)cc2)CC1 (stereo not drawn),–,"inconclusive: 18.5 µM [inhibitor, single point]"
CCC(=O)N1CCc2cc(S(=O)(=O)NCCC(=O)NC3CCCc4ccccc43)ccc21 (stereo not drawn),–,"inconclusive: 3.7 µM [inhibitor, full curve, poor fit]"
COc1cc2c(cc1OC)CN(c1ccc([N+](=O)[O-])c(C(F)(F)F)c1)CC2,–,"inconclusive: 18.5 µM [inhibitor, single point]"
COc1cccc2cc(C(C)N(CCCN3CCOCC3)C(=O)Nc3ccccc3)oc12 (stereo not drawn),–,"inconclusive: 0.586 µM [inhibitor, full curve, poor fit]"
Cc1cccn2c(=O)c3cc(C#N)c(=NC(=O)c4ccncc4)n(CCCOC(C)C)c3nc12,–,active: 6.57 µM
COC(=O)C(N)Cc1ccc(Cl)cc1 (stereo not drawn),inactive: 0.957%,–
CCOc1cc(CNCCc2c[nH]c3ccccc23)cc(Cl)c1OCC,–,"inconclusive: 10.4 µM [inhibitor, single point]"
CC(C)c1ccc(N2C(=O)CSC23C(=O)N2CCCc4cccc3c42)cc1 (stereo not drawn),–,"inconclusive: 16.5 µM [inhibitor, single point]"
Cc1cccc(NC(=O)c2cc([N+](=O)[O-])ccc2N2CCCCC2)n1,–,"inconclusive: 18.5 µM [inhibitor, single point]"
CCOC(=O)/C=C(\C)Sc1cc(=O)oc2ccccc12,–,"inconclusive: 18.5 µM [inhibitor, single point]"
OC(COCCC12CC3CC(CC(C3)C1)C2)CN1CCCC1 (stereo not drawn),–,"inconclusive: 18.5 µM [inhibitor, single point]"
CCOC(=O)c1sc(C)c(C(N)=O)c1NC1=NCCCCC1,–,"inconclusive: 18.5 µM [inhibitor, single point]"
Cc1ccc(C)c(N2CCN(C(=O)c3ccc(CS(=O)(=O)c4ccccc4C)o3)CC2)c1,–,"inconclusive: 11.7 µM [inhibitor, single point]"
